Reference: US9562071 (dated 2017)

Assay: general procedure: Fmoc solid-phase peptide synthesis; Sieber resin (0.6 mmol/g); HBTU/HOBt/DIPEA
Conditions: whole synthesis, scale of the general procedure 100.0 g resin

eptifibatide
final HPLC purity (run 1): 99.28% | final HPLC purity (run 2): 99.10% | final HPLC purity (run 3): 99.27% | final HPLC purity (run 4): 99.24% | final HPLC purity (run 5): 99.20% | final HPLC purity (run 6): 99.27% | final HPLC purity (run 7): 99.24% | final HPLC purity (run 8): 99.27% | final HPLC purity (run 9): 99.14%
